Laboratory results reported in PMC7819943, “Rice protein-binding microarrays: a tool to detect cis-acting elements near promoter regions in rice”.
The list shows a part of the results.

By UniProt entry, the sequences of proteins in these tests, tags left out.
UniProt Q0JBA9, entry or part of it: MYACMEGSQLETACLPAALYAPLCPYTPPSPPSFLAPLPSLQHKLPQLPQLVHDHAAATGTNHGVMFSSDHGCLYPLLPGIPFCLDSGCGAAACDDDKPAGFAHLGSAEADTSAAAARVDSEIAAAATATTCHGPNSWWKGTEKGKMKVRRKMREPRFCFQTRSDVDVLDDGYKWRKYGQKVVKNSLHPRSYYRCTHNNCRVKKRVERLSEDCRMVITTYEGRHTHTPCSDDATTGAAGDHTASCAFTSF

The sequences below were run against OsWRKY34 (Oryza sativa, UniProt Q0JBA9 1-250) (assay: protein-binding microarray (RPBM); PBS, 2% BSA, 51.3 ng/ul salmon testes DNA, 50 uM zinc acetate, 200 nM TF, 25 C, 1 h; high values mean tight binding). Settings: protein: recombinant; tags: N-terminal polyhistidine and DsRed monomer fusion (pET32a); label: CyDye5-dUTP incorporated in the synthesized complementary strand; 3' TTTTT single-stranded linker to array surface; dsDNA, one strand shown.
Procedure, shortened: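 An Axon 4000B scanner gave the binding signal as per-feature fluorescence intensity in arbitrary units. This followed washing of a custom Agilent array that had been incubated for 1 h at 25 °C with 200 nM protein in PBS, 2% BSA, salmon testes DNA and 50 µM zinc acetate. The proteins were transcription factors fused at the N-terminus to polyhistidine and DsRed, expressed in E. coli BL21-CodonPlus and purified on Ni–NTA.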

Sequence | binding signal
TCTATTTTTCTTTTGTTTTCTCTCTCTACTATTTCCTTCCCGGAGTCACCTAGTGCAG | 8360 fluorescence intensity (a.u.)
TAAGCAGAGACCACAGACACACACACTTTATGCTTGGCTACGGAGTCACCTAGTGCAG | 8690 fluorescence intensity (a.u.)
TTAGGATTATACTGGCAGTATGTTTGATTTGTTTTCTTTCCGGAGTCACCTAGTGCAG | 8280 fluorescence intensity (a.u.)
CGGGTAGGGTGGGGTGGGGCGGGGTGGGGTTGGCGGCGACCGGAGTCACCTAGTGCAG | 39500 fluorescence intensity (a.u.)
ATCTATTTTGTTGCACTCATTTTTTTTTTTTTGTCTATTCCGGAGTCACCTAGTGCAG | 10200 fluorescence intensity (a.u.)
AATCCACACCTATTGAGTAAGTACTCATTCCATCTATTTTCGGAGTCACCTAGTGCAG | 8580 fluorescence intensity (a.u.)
GGTCATGCCTTACTACTGCACCTACTTCTTCACAGCAACCCGGAGTCACCTAGTGCAG | 8630 fluorescence intensity (a.u.)
CCCAACTCCGACGCTTCCTCCGCCCCGGCGATCGCCGCCACGGAGTCACCTAGTGCAG | 10300 fluorescence intensity (a.u.)
TTCCAAACGGGCCTGAACTCCGCCCATCCTACGCTTATTACGGAGTCACCTAGTGCAG | 8440 fluorescence intensity (a.u.)
TTTTCTGTGTTGGGTCTGGGTCGGGCTGGGCCGGCGCTGGCGGAGTCACCTAGTGCAG | 10700 fluorescence intensity (a.u.)
GCCTCTTGCATTTGCTGCCGCCGCCGCCCCGACCGCCGCACGGAGTCACCTAGTGCAG | 9560 fluorescence intensity (a.u.)
AAAGGTGAGTAGTGGTTTCTGGGTTGCGTCTCCCTTTTTCCGGAGTCACCTAGTGCAG | 12600 fluorescence intensity (a.u.)
ATTTGGTTTTGCGGTTCGAGGACGTTTTTATATTCCGATGCGGAGTCACCTAGTGCAG | 8140 fluorescence intensity (a.u.)
CTCTCTCTCGTCTATCGCACGCACCTTTTTTAAACTGCTACGGAGTCACCTAGTGCAG | 8410 fluorescence intensity (a.u.)
GCCAACCGCTGCCACCGCCGCTCCGCTCCCGCGCTCTTGGCGGAGTCACCTAGTGCAG | 8960 fluorescence intensity (a.u.)
ATATCTTGGACTCGGTCCTATCTGTCCGTGCCTCGCTTCCCGGAGTCACCTAGTGCAG | 9340 fluorescence intensity (a.u.)
GGCTGTATTTATTTATCAAAAGTATTTATCTCTTAAACACCGGAGTCACCTAGTGCAG | 8100 fluorescence intensity (a.u.)
GCTGACTTCTATTCCCTGCTCGCCCAATCGAATCCGGCGCCGGAGTCACCTAGTGCAG | 11700 fluorescence intensity (a.u.)
AACTCAGGACCGGTAAATTCGCTATCGGTTTTTTCGGTCTCGGAGTCACCTAGTGCAG | 8650 fluorescence intensity (a.u.)
CGATCCATCCACTCCTCGAGATTTCGGCGGAATGCCTCCGCGGAGTCACCTAGTGCAG | 8230 fluorescence intensity (a.u.)
TTACTGTACTGCTGCTACCACTAATGTTCTTTCTCTCCATCGGAGTCACCTAGTGCAG | 8750 fluorescence intensity (a.u.)

Sequence | binding signal
TGCCACCGACACACTCCACTCCTCGCTGCCGCCGCCGCCGCGGAGTCACCTAGTGCAG | 11100 fluorescence intensity (a.u.)
GCTTGCCAACTTGTCCCAAATTTCCTTCGGCGTTTTTTCACGGAGTCACCTAGTGCAG | 10800 fluorescence intensity (a.u.)
AGTGCGCGCTTCTTCTTCGTTTGTCGCCGATCGTTTTTGTCGGAGTCACCTAGTGCAG | 11300 fluorescence intensity (a.u.)
TTATTTCCTGTTTGCAATTTCATATTACTTCTCATATTATCGGAGTCACCTAGTGCAG | 8300 fluorescence intensity (a.u.)
ATTTATGTTTGCATGTTATCTTGACCTACTTTGTCCTGTCCGGAGTCACCTAGTGCAG | 10000 fluorescence intensity (a.u.)
CCCACACGCCAGAGTCTCAGCTTGCCTCGTTGTCACTCACCGGAGTCACCTAGTGCAG | 8230 fluorescence intensity (a.u.)
CAACGGCCAACCTCCGACATTGTACTTGTCAGTTGTCACTCGGAGTCACCTAGTGCAG | 8810 fluorescence intensity (a.u.)
AATTGTTTGTTTTTTAATCTTCTGTGTCACAGTCTTCTGACGGAGTCACCTAGTGCAG | 9290 fluorescence intensity (a.u.)
GTCAAACATCAACTTTTCCGTCACATCAAATGTTTGGACACGGAGTCACCTAGTGCAG | 8670 fluorescence intensity (a.u.)
GATTAGTGAGAGGGGCAGGGTGGGTGCCGCAGCTCCTGCACGGAGTCACCTAGTGCAG | 10500 fluorescence intensity (a.u.)
AATTTTTACTCTCTGTTTTGGCCTCCTAAAAATTCAAACCCGGAGTCACCTAGTGCAG | 9510 fluorescence intensity (a.u.)
CTTTTATTTGGTGTATGCAATTTTCTACAGCGCTGCTATACGGAGTCACCTAGTGCAG | 8840 fluorescence intensity (a.u.)
TTGTTGCACATTTGTGTTCTTCATAACTCTATTTATGTCACGGAGTCACCTAGTGCAG | 8110 fluorescence intensity (a.u.)
ATGACGCCGTTGACTTTTTGTCCAACGACCATTCATTTTACGGAGTCACCTAGTGCAG | 31300 fluorescence intensity (a.u.)
GCTGCACAGGGCAAGCTCATTGCCTATATACCTCATTTTACGGAGTCACCTAGTGCAG | 8030 fluorescence intensity (a.u.)
GCAGCAACAACCGCCGCGCCATTGATGACTAATTGAGATCCGGAGTCACCTAGTGCAG | 8060 fluorescence intensity (a.u.)
GCACCGCATTTCTCCCAAGCCTTGCCGGCTTCTCTTCTCTCGGAGTCACCTAGTGCAG | 9420 fluorescence intensity (a.u.)
TCCAGGGAGCCGCGGTGGCATATGTTGCTGACATGTTTTCCGGAGTCACCTAGTGCAG | 8190 fluorescence intensity (a.u.)
GCGGAGGAGGTGGTGGTGGTGGAGGAGGAGGAGGCCAAGGCGGAGTCACCTAGTGCAG | 19300 fluorescence intensity (a.u.)
CCAGATTTTAACATGTTTTACTGCCTTACACGTCCACTGTCGGAGTCACCTAGTGCAG | 9800 fluorescence intensity (a.u.)
GGTTAGTATTGTGTGTGCGTTTGCGTGAACCATGTAATATCGGAGTCACCTAGTGCAG | 8180 fluorescence intensity (a.u.)

Part of the list above, reformatted.
Sequence	binding signal
AATTGTTTGTTTTTTAATCTTCTGTGTCACAGTCTTCTGACGGAGTCACCTAGTGCAG	9290 fluorescence intensity (a.u.)
GTCAAACATCAACTTTTCCGTCACATCAAATGTTTGGACACGGAGTCACCTAGTGCAG	8670 fluorescence intensity (a.u.)
GATTAGTGAGAGGGGCAGGGTGGGTGCCGCAGCTCCTGCACGGAGTCACCTAGTGCAG	10500 fluorescence intensity (a.u.)
